Results are given in words; binding and its absence hold for the method and conditions named. In cells and extracts the contact can be indirect. Some results given as binding are weak or reduced against the parent protein; the word gives no strength.
Molecular target: Flag-GLUT1 (Glucose transporter type 1) (UniProt P11166)
Assay: co-IP; anti-Flag (GLUT1) antibody on protein A/G magnetic beads; lysates of HNE2 and CNE2 cells transfected with Flag-GLUT1 vector; GLB+ lysis buffer (150 mM NaCl, 10 mM Tris-HCl pH 7.5, 0.5% Triton X-100, 10 mM EDTA pH 8.0), 4 °C overnight; western blotting with anti-SUMO2 and anti-UBC9

By UniProt entry, the sequences of proteins in these tests, tags left out.
UniProt P11166: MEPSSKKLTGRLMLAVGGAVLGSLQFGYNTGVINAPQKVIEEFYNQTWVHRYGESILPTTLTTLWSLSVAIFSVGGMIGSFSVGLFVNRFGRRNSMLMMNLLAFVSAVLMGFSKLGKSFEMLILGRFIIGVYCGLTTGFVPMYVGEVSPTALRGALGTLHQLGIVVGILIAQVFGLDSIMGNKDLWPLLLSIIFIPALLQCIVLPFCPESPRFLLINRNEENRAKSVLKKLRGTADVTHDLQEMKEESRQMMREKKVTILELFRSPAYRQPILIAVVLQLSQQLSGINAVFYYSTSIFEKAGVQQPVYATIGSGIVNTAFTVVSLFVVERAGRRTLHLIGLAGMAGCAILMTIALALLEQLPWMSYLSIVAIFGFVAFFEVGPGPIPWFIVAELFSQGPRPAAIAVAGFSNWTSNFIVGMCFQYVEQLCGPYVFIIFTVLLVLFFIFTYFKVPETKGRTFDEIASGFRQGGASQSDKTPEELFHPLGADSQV
UniProt P63279: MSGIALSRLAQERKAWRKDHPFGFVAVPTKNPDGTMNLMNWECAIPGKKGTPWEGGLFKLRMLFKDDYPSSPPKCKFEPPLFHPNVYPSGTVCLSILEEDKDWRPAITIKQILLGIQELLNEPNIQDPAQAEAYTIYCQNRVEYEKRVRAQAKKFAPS

With “Ubiquitin-Conjugating Enzyme 9 (UBC9), endogenous (from UniProt P63279 1-158)” the binding was “binds”.
